Measurements: the supplement of paper PMC7666118
The list shows a part of the results.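 How the source made its calls: active = dose-dependent thermal stabilisation significant by F-test of dose-response against flat model at 10% FDR; inactive = not significant.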

Amino acid sequences for entries named in this document (tags omitted). A change or cut given only in a name is not applied to a line headed by its entry.
UniProt Q9Y2D5: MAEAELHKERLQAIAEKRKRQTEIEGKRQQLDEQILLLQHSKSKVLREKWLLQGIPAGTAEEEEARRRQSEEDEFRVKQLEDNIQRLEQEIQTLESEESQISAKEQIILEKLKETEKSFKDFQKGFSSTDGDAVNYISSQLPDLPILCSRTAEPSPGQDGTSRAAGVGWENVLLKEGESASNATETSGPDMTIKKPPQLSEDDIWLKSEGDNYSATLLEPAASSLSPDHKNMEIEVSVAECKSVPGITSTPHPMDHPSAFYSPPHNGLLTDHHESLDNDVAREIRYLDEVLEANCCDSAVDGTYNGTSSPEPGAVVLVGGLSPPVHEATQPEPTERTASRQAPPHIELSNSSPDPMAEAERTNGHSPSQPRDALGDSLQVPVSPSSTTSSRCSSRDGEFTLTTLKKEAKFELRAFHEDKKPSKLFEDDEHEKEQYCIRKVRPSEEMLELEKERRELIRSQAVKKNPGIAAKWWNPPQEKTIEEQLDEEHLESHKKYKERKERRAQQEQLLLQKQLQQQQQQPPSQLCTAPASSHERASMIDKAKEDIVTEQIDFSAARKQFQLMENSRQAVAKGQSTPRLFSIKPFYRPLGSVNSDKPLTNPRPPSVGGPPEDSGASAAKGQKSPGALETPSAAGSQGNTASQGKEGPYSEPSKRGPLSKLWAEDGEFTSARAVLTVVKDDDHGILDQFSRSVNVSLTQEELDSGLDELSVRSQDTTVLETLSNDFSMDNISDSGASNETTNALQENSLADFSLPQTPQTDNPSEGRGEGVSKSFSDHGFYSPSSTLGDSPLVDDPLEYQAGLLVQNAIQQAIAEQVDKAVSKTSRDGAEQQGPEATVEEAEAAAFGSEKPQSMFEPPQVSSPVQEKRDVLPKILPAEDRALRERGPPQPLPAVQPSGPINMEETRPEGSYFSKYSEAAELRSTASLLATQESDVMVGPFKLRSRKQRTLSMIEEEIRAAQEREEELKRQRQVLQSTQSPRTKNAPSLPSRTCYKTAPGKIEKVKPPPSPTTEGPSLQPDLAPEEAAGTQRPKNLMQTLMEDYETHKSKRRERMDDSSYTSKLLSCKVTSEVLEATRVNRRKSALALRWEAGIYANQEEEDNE
UniProt O75843: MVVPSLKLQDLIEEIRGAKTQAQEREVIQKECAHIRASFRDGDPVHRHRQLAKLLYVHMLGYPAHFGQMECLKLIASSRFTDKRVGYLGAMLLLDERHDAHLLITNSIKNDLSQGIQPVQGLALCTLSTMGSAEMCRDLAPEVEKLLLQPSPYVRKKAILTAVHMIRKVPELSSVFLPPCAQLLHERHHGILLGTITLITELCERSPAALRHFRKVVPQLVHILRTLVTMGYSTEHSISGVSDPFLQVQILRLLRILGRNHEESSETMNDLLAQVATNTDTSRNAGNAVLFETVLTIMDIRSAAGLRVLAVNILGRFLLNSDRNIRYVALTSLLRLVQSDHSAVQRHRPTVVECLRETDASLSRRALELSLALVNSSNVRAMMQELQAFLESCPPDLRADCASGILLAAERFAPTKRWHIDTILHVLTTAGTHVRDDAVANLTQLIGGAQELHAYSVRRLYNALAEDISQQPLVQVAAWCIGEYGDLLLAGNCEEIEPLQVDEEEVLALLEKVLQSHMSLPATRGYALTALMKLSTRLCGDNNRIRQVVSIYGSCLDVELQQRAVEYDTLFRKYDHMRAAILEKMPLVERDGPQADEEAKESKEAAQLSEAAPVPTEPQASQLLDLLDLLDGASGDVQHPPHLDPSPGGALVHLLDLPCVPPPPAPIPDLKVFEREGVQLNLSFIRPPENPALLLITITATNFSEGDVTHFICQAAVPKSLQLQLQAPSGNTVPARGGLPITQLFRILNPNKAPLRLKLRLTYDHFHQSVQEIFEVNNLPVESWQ
UniProt Q6H8Q1: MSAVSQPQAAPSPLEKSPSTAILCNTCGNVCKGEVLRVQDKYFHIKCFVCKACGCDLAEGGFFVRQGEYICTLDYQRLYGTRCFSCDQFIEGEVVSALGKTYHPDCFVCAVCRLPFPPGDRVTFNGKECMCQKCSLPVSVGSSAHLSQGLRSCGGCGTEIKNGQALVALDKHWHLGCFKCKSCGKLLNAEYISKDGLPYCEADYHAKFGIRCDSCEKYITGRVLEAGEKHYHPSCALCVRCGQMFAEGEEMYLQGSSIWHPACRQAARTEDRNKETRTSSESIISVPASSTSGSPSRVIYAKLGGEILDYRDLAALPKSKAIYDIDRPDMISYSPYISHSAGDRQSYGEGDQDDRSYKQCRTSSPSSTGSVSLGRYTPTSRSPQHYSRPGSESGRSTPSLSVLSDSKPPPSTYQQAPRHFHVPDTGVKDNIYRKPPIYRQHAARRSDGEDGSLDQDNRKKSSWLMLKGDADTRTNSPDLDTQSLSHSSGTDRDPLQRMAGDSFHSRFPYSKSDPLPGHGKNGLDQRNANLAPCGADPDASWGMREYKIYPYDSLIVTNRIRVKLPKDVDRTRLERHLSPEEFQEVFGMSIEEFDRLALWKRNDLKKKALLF
UniProt Q9NPJ3: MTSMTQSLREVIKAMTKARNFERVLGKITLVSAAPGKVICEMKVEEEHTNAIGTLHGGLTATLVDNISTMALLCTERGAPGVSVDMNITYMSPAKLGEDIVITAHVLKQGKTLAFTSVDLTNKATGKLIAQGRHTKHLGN
UniProt Q9BV57: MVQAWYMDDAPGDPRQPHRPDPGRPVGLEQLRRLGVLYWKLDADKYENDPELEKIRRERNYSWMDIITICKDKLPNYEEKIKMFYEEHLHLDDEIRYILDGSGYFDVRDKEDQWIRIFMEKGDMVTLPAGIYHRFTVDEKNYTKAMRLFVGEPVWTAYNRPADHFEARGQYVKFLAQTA
UniProt Q9NYB9: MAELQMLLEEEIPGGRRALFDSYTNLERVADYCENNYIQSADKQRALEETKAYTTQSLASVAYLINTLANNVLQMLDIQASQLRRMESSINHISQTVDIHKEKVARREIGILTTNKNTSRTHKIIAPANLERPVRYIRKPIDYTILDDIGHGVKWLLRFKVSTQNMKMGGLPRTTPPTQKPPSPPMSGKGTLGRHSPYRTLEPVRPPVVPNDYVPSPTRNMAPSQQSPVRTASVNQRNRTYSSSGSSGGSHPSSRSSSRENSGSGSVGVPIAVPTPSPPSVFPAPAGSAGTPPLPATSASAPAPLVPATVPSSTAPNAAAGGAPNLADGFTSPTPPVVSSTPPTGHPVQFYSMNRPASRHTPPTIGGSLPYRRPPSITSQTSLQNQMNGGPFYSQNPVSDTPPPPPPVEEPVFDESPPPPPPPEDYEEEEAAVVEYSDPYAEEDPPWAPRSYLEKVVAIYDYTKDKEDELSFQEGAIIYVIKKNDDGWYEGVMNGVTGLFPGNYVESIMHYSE
UniProt Q9P2R3: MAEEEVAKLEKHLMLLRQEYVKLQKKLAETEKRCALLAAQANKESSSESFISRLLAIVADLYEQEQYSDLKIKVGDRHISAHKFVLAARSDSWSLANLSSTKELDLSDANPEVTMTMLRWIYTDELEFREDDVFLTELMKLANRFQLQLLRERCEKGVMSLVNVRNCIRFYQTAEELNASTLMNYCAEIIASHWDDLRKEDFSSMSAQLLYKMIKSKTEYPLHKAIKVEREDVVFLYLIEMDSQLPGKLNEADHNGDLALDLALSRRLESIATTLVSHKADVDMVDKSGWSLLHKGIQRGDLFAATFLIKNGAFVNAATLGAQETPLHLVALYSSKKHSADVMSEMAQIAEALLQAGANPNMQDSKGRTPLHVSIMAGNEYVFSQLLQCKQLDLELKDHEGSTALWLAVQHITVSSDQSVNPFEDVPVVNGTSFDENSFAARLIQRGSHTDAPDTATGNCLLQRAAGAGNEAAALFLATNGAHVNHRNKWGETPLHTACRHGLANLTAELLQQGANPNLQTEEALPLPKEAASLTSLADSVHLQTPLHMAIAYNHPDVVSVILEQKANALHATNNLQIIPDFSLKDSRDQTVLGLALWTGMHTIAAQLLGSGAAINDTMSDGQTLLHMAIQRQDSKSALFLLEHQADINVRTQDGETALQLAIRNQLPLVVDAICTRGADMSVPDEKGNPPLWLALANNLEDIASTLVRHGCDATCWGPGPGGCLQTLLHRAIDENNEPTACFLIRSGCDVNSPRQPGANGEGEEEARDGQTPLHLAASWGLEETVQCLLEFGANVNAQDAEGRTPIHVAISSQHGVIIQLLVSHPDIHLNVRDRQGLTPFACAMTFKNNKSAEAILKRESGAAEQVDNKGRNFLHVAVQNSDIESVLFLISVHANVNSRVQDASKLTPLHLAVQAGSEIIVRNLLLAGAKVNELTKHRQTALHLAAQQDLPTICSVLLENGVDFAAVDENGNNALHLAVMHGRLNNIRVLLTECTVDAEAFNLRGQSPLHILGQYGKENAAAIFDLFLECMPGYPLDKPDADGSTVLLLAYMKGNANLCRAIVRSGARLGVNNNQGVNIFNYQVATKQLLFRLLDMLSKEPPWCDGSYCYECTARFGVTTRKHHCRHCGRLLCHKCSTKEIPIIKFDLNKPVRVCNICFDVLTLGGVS
UniProt Q96GX9: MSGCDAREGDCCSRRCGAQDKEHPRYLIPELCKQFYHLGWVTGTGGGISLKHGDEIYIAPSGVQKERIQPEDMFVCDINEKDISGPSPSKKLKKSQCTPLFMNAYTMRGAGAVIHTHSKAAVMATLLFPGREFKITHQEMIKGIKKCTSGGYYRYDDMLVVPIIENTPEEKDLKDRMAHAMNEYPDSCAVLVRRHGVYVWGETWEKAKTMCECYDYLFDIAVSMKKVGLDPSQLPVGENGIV
UniProt Q9BZZ5: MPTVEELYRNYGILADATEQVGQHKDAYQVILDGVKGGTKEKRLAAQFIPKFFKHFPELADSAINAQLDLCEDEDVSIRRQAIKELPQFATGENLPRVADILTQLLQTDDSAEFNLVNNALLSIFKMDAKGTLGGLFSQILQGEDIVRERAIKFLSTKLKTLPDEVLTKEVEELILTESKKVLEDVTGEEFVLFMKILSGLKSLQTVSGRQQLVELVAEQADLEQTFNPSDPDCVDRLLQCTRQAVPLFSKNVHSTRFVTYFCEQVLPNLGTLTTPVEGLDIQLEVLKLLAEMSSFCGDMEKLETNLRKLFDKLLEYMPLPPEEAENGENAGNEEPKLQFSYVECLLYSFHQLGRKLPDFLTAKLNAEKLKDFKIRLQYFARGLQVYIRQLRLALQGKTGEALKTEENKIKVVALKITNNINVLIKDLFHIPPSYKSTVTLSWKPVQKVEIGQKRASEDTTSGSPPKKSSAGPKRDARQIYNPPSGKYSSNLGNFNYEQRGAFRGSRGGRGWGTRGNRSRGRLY
UniProt P56377: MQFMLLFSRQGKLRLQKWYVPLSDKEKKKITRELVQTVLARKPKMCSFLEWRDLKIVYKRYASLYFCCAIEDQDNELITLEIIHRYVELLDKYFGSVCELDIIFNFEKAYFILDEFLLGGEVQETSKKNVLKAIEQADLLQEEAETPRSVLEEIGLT
UniProt Q01433: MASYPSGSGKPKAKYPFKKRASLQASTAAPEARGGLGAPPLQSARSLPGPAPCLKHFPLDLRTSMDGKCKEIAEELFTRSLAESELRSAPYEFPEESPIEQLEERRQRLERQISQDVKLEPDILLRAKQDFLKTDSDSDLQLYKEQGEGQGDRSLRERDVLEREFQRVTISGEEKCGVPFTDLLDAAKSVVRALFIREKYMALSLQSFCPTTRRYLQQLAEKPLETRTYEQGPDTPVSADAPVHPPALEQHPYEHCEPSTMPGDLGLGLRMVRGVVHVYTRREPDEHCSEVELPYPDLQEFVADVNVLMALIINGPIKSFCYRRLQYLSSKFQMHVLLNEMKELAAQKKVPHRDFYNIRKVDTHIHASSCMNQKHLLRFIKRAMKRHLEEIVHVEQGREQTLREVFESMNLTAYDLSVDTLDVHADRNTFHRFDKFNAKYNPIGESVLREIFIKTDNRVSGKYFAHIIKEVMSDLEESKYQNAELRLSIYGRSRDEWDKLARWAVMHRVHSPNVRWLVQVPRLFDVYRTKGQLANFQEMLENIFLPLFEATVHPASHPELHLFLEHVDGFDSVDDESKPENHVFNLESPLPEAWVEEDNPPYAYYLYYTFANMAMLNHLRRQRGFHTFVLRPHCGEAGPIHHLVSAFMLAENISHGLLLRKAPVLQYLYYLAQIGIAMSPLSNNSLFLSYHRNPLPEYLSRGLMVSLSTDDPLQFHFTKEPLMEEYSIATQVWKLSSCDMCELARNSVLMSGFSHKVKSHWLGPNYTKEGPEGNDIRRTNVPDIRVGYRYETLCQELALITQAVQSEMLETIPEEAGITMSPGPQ
UniProt P04083: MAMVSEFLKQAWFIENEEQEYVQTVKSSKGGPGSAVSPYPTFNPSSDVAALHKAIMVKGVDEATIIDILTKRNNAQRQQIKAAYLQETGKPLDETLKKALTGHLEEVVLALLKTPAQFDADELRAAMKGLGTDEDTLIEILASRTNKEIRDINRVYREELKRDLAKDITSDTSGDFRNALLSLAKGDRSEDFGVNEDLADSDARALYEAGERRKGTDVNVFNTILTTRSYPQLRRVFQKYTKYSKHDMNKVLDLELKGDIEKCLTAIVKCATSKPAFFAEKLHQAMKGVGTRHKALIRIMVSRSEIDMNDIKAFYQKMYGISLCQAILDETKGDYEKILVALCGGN

Compound: Nc1nc2c(ncn2[C@@H]2O[C@H](COP(=O)(O)OP(=O)(O)OP(=O)(O)O)[C@@H](O)[C@H]2O)c(=O)[nH]1
Assay: dose-dependent thermal stabilisation call (2D-TPP, DLPTP, 10% FDR) (binary (1 = stabilised)); higher = stabilised by the compound
Conditions: system: Jurkat gel-filtered lysate; concentration range 1-500 µM

Target | dose-dependent thermal stabilisation call
AP2A2 (UniProt O94973) | inactive: 0
AKAP2 (UniProt Q9Y2D5) | inactive: 0
ADSS (UniProt P30520) | inactive: 0
ACTR3 (UniProt P61158) | active: 1
ACAP2 (UniProt Q15057) | inactive: 0
AP1G2 (UniProt O75843) | inactive: 0
AKAP11 (UniProt Q9UKA4) | inactive: 0
ACTBL2 (UniProt Q562R1) | active: 1
APEH (UniProt P13798) | inactive: 0
ABLIM2 (UniProt Q6H8Q1) | inactive: 0
ABCF1 (UniProt Q8NE71) | active: 1
AMDHD2 (UniProt Q9Y303) | inactive: 0
ABCE1 (UniProt P61221) | active: 1
ACOT13 (UniProt Q9NPJ3) | inactive: 0
AK2 (UniProt P54819) | inactive: 0
AP3D1 (UniProt O14617) | inactive: 0
AARSD1 (UniProt Q9BTE6) | inactive: 0
ADI1 (UniProt Q9BV57) | inactive: 0
ABI2 (UniProt Q9NYB9) | inactive: 0
ANKFY1 (UniProt Q9P2R3) | active: 1
APIP (UniProt Q96GX9) | inactive: 0
AHNAK (UniProt Q09666) | inactive: 0
API5 (UniProt Q9BZZ5) | inactive: 0
AP1S2 (UniProt P56377) | inactive: 0
ACO2 (UniProt Q99798) | inactive: 0
AMPD2 (UniProt Q01433) | inactive: 0
ANXA1 (UniProt P04083) | inactive: 0

For convenience, part of the list above:
Target | dose-dependent thermal stabilisation call
AP1S2 (UniProt P56377) | inactive: 0
ACO2 (UniProt Q99798) | inactive: 0
